# Results deposited as PubChem BioAssay AID1671195 (Yale University, 2021).
# Screen: 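Regulators of LDL receptor activity judged by labelled LDL uptake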 (primary screen)
# Cell system: human Huh7 hepatoma cells
# Reagents: siRNA pool against human genes, 18 nM
# Time to read-out: about 2 to 2.5 days of knockdown, then 8 h LDL uptake
# Challenge: DiI-labelled LDL at 30 µg/ml for 8 h, in lipoprotein-deficient serum medium
# Detection: 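Fluorescent LDL signal imaged in cells, scaled to the plate median, robust z-score for each replicate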
# Reading the numbers: robust z-score: higher = more LDL uptake after knockdown
# Active means: 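Active when two or more replicates show a robust z-score above 2 or below -2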
# Here is one part, drawn at random, of about 22,000 reagents tested. About 1,510 of them (6.9%) count as active. 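Active includes knockdowns raising or lowering LDL uptake; positive z-scores mean more uptake, negative mean less.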 Unmarked entries are inactive.
Gene,"robust z-score, replicate 1","robust z-score, replicate 2","robust z-score, replicate 3"
LOC440702 (retired record),2.71 (active),2.87,2.8
EID2B,-1.53,-1.08,-0.497
LOC390009 (retired record),1.47,0.244,0.889
SLC7A5,0.619,0.701,1.13
OR1J1,1.11,1.08,1.68
ADAMTS7,0.23,-0.281,-0.311
BCLAF3,-0.824,-0.871,-0.412
MEIS2,0.527,-0.667,0.612
ESRRB,-0.147,-0.161,-0.32
ACTL10,0.812,0.641,0.762
CALM2,1.45,1.32,2.06
PSG4,-0.022,0.224,0.768
M6PR,4.19 (active),5.51,2.47
CASC15,0.484,0.908,0.913
SLC6A3,-0.887,-1.05,-0.743
PHPT1,0.94,0.784,1.93
TCF19,1.12,0.972,0.695
CORO6,-0.567,-0.427,-0.82
ZNF83,0.89,0.172,0.142
SMG8,-0.221,-0.496,0.953
RHOQ,-0.2,-0.328,0.266
GCSAML,0.0381,-0.0247,0.695
DUSP9,-0.616,-0.494,-1.16
HEXIM1,0.692,-0.698,1.6
LOC389636 (retired record),2.02,1.8,1.14
RANBP1,-0.97,-1.91,-0.769
ARHGAP19,1.43,1.19,-0.747
LOC388453 (retired record),2.47,1.14,0.237
SKIC8,-0.591,-1.14,-0.872
RAI2,-1.11,-2,0.11
A4GNT,-0.22,-0.378,-0.635
CSTL1,0.624,0.453,0.558
POF1B,-0.741,-1.06,-0.736
AKR7A3,-0.379,0.165,0.256
C12orf42,-1.25,-1.17,-1.24
STBD1,-0.956,1.14,-0.0809
UQCC1,0.929,-0.729,0.268
SHFL,0.00278,0.543,-0.189
PPIAP33,-1.04,-1.07,-0.858
EXTL2,0.138,0.0557,0.695
LOC388622 (retired record),-0.176,-0.412,-0.262
OMD,-0.86,-0.33,-0.687
RNF14,0.316,0.357,-0.424
KLHL2,-0.271,-1.67,-0.947

Part of the list above, reduced to “robust z-score, replicate 1”:
CSTL1 = 0.624
POF1B = -0.741
AKR7A3 = -0.379
C12orf42 = -1.25
STBD1 = -0.956
UQCC1 = 0.929
SHFL = 0.00278
PPIAP33 = -1.04
EXTL2 = 0.138

More reagents follow.
Gene,"robust z-score, replicate 1","robust z-score, replicate 2","robust z-score, replicate 3"
D2HGDH,0.829,1.36,0.585
ZNF280B,-0.0171,-0.607,-0.221
OSMR,1.13,1.05,0.882
OGFR,0.0709,0.891,-0.118
NCKAP5,-0.112,0.0382,-0.315
CHRNA7,-1.65,-1.6,-2.1
LOC441827 (retired record),-1.56,-1.16,-0.92
MTRF1L,-2.4,-1.68,-0.888
G0S2,-1.23,0.749,0.325
GET1,-0.734,-0.309,-1.05
LOC440768 (retired record),-0.517,0.455,1.06
C8orf48,-1.34,-1.9,-1.36
ZNF888,-0.634,-0.32,0.56
CD1C,0.946,-0.056,1.99
PPP1R3B,0.728,0.489,0.305
LOC441215 (retired record),-1.17,-1.31,-1.42
MST1,-2.1,-1.84,-1.6
PTPRN2,0.954,0.434,1.64
MYH6,2.23 (active),1.11,2.97
MNMIP1,3.17,1.43,1.66
LOC144631 (retired record),0.379,-0.21,2.09
LRBA,3.38 (active),3.58,3.14
LOC400627,0.211,0.227,0.0175
LOC93463,0.651,0.656,-0.0359
MPPED2,0.212,-0.22,-0.519
USP4,2.26 (active),1.71,2.93
GATA3,0.678,0.157,0.372
ELK1,0.212,2.32,0.648
RNF43,0.596,-0.113,0.5
RNF5,-0.441,-0.572,-0.189
CENPH,0.125,-0.542,-0.771
NEURL4,-1.43,-1.08,-0.628
PPP1R12B,1.07,0.414,1.26
LINC01498,1.58,1.99,1.6
LOC441371 (retired record),0.94,1.04,1.32
ELOA,4.69 (active),3.52,4.18
HOXD3,-0.621,-0.495,0.0477
ZNF257,1.88,1.09,1.58
ACSM2B,-1.54,-0.944,-1.76
CFAP91,0.897,1.68,1.86
ZNF609,1.87,-0.848,1.61
CASP3,-1.5,-1.59,-1.02
AP2M1,-1.79,-1.43,-2.21
